Measurements published in PMC3649978.
These are yes or no findings as the source states them, for the method shown. Binding seen in cells or lysates may run through a third protein. A result given as binding can be weak or reduced; the word gives no strength. Where a sequence is shown, tags or fusion partners need not be part of it.

Target: Halo-tagged p104-CT-V5 (p104 residues 470-871) (Theileria annulata)
Assay: pull-down; Halo-tagged p104 fragments (C-terminal V5) linked to Halolink resin; about 500 µg lysate of COS-7 cells (untransfected, or expressing EB1-GFP fragments) incubated overnight; 5 washes with 500 mM NaCl and 0.01% tween-20; elution by TEV protease; immunoblot with anti-EB1, anti-GFP and anti-V5; only the target purified

Binder	binding
EB1_(125–268)-GFP (mouse EB1 residues 125-268) (domain or fragment, UniProt Q61166 125-268) DPVAARQGQETAVAPSLVAPALSKPKKPLGSSTAAPQRPIATQRTTAAPKAGPGMVRKNPGVGNGDDEAAELMQQVKVLKLTVEDLEKERDFYFGKLRNIELICQENEGENDPVLQRIVDILYATDEGFVIPDEGGPQEEQEEY	binds
EB1_(1–133)-GFP (mouse EB1 residues 1-133) (domain or fragment, UniProt Q61166 1-133) MAVNVYSTSVTSDNLSRHDMLAWINESLQLNLTKIEQLCSGAAYCQFMDMLFPGSIALKKVKFQAKLEHEYIQNFKILQAGFKRMGVDKIIPVDKLVKGKFQDNFEFVQWFKKFFDANYDGKEYDPVAARQGQ	no binding
